In patent US20210395310A1, “Cyclic Peptide” (The University of Tokyo, priority 2018, published 2021):
Results are given in words; binding and its absence hold for the method and conditions named. Some entries that bind do so weakly or less than the wild type.

Sequences of proteins named here, by UniProt entry; tags and fusion partners are left off. A change or cut given only in a name is not applied to a line headed by its entry. Residues count along the entry.
UniProt P08581, residues 25-932: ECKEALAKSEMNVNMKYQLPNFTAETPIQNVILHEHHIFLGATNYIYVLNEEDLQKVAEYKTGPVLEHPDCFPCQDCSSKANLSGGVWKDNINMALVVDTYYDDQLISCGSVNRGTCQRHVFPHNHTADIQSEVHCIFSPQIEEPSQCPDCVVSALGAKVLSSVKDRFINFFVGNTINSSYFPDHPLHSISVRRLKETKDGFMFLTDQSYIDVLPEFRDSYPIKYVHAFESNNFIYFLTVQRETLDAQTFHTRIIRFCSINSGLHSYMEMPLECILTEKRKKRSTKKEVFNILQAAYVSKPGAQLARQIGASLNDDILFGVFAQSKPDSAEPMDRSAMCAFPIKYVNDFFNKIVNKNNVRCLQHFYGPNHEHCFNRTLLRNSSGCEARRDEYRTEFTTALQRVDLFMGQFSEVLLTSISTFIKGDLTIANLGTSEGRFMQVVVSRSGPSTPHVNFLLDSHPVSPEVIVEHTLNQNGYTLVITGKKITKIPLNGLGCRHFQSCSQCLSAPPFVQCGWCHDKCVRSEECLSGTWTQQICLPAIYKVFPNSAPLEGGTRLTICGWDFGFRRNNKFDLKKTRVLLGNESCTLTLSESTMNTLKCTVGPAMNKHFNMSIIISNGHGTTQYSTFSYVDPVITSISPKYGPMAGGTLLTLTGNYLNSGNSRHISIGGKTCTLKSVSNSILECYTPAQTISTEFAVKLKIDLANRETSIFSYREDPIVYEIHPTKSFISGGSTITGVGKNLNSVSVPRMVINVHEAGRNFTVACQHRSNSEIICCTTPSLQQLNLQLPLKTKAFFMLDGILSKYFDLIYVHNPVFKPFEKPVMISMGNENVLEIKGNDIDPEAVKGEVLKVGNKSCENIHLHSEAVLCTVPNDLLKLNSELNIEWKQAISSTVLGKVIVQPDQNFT
UniProt P14210: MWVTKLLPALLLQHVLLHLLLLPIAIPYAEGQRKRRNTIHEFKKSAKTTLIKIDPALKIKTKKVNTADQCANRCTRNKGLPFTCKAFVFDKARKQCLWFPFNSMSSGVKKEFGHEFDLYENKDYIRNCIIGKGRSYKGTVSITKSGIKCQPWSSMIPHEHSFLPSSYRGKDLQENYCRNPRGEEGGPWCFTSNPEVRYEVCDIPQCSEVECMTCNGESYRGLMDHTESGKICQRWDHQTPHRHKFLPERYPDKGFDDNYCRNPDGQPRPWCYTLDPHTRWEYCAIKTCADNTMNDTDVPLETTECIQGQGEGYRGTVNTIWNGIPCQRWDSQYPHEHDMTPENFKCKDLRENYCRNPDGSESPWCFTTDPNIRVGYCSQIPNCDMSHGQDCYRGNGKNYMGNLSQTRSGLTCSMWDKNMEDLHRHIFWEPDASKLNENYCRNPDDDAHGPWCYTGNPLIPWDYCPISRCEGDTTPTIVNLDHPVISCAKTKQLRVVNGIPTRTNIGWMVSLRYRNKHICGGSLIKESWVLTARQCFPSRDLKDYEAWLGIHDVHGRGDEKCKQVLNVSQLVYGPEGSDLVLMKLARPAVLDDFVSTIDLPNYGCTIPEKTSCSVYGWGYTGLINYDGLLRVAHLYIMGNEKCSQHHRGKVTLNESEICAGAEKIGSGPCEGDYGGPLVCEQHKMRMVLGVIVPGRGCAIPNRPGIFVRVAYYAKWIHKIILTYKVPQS

What was measured:
[1] = biological target: MET-extracellular domain-Fc fusion protein (product of R&D systems) (UniProt P08581); assay: flow cytometry of MET-Fc on protein G beads incubated with rising fluorescein-HGF
His-labeled MET-ECD = His-labeled MET-ECD (UniProt P08581); assay: SPR (Biacore 3000), HGF injected over His-labeled MET-ECD on an NTA chip

binding [1]	binding (His-labeled MET-ECD)	Substance
binds	–	fluorescein-HGF (from UniProt P14210 32-728) (ligand)
–	binds	human hepatocyte growth factor (HGF), recombinant full-length, active two-chain form (from UniProt P14210 32-728) (ligand)
